# Experimental data from US20060088531A1.
# Protein sequences, listed by entry. Tags and fused reporters are not part of them. Lines headed by an entry give the natural chain unless they say otherwise; changes in a name come on top. Chains listed by the source or under a name are the forms on record and can include a tag or linker.
# hD1D2 triple mutant (Q9HCN6, form named): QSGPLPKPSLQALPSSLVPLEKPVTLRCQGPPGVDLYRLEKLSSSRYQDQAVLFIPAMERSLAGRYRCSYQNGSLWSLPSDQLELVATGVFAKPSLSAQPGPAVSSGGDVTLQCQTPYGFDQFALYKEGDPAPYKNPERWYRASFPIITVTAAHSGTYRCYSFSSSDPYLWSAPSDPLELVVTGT
# UniProt P0C191: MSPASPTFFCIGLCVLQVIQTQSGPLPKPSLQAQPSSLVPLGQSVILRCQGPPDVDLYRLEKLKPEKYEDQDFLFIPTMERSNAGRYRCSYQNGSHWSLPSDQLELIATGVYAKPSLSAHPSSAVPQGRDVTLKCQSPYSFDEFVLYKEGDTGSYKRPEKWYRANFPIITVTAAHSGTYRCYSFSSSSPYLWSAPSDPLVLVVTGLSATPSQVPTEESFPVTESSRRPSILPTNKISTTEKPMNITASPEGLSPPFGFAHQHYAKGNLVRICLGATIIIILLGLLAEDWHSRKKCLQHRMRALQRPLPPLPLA
# These are yes or no findings as the source states them, for the method shown. Some entries that bind do so weakly or less than the wild type.
# What was measured:
# hD1D2-CaM (human) [1] = biological target: T1, hD1D2-CaM (human) (UniProt Q9HCN6+P0DP23); assay: resonant mirror biosensor, sequential addition without washing
# hD1D2-CaM (human) [2] = biological target: T1, hD1D2-CaM (human); assay: capture ELISA (BSA-N9A), bacterial supernatant
# mD1D2-CaM (murine) [3] = biological target: T2, mD1D2-CaM (murine) (UniProt P0C191+P0DP23); assay: screening ELISA
# mD1D2-CaM (murine) [4] = biological target: T2, mD1D2-CaM (murine); assay: capture ELISA, bacterial supernatant
# mD1D2-CaM (murine) [5] = biological target: T2, mD1D2-CaM (murine); assay: capture ELISA, purified scFv at 10 µg/ml
# hD1D2-CaM (human) [6] = biological target: T1, hD1D2-CaM (human); assay: capture ELISA, supernatant of scFv expressed from pUC119
# hD1D2-CaM (human) [7] = biological target: T1, hD1D2-CaM (human); assay: direct ELISA, bacterial supernatant, directly coated antigen
# [8] = biological target: hD1D2 triple mutant (human) (UniProt Q9HCN6); assay: ELISA on hD1D2 mutants
# hD1D2-CaM (human) [9] = biological target: T1, hD1D2-CaM (human); assay: resonant mirror biosensor, immobilised hD1D2-CaM
# hD1D2-CaM (human) [10] = biological target: T1, hD1D2-CaM (human); assay: ELISA
# hD1D2-CaM (human) [11] = biological target: T1, hD1D2-CaM (human); assay: recap of ELISA and ligand binding results
binding (hD1D2-CaM (human) [1]),binding (hD1D2-CaM (human) [2]),binding (mD1D2-CaM (murine) [3]),binding (mD1D2-CaM (murine) [4]),binding (mD1D2-CaM (murine) [5]),binding (hD1D2-CaM (human) [6]),binding (hD1D2-CaM (human) [7]),binding [8],binding (hD1D2-CaM (human) [9]),binding (hD1D2-CaM (human) [10]),binding (hD1D2-CaM (human) [11]),Binder
binds,binds,binds,binds,binds,binds,binds,binds,binds,,,"scFv 1C3 (scFv, V domains shown) VH: QVQLQQSGAEVKKPGESLKISCQASGYSFSSYWIAWVRQMPGKGLELMGIIYPGDSDARYSPSFQGQVTFSADKSINTAYLQWSSLKASDTAMYYCARQGKTGSYYFGAFDVWGQGTMVTVSS VL: QSVLTQPPSMSAAPGQKVTISCTGTSSDVGGYNYVSWYQQHPGKAPKLMLFEVSHRPSGVSNRFSGSKSDNTASLTISGLQAEDEADYYCSSYTGSSTWVFGGGTKVTVL"
binds,binds,,,,binds,binds,,binds,binds,binds,"scFv 10B12 (scFv, V domains shown) VH: EVQLVQSGGGVVQPGGSLRLSCAASGFTFSSYGMHWVRQAPGKGLEWVAFIRYDGSNKYYADSVKGRFTISRDNSKNTLYLQMNSLRAEDTAVYYCTDGWAEMATTDDAFDIWGRGTMVTV VL: DIQMTQSPSTLSASIGDRVTITCRASEGIYHWLAWYQQKPGKAPKLLIYKASSLASGAPSRFSGSGSGTDFTLTISSLQPDDFATYYCQQYSNYPLTFGGGTKLEIK"
